From the supplement of paper PMC12819154, “High-throughput peptide-centric local stability assay extends protein–ligand identification to membrane proteins, tissues and bacteria” (Nature Structural & Molecular Biology, 2025)
This is one part of the list. Most values lie at the level of the controls, where differences are scatter.

Sequences of proteins named here, by UniProt entry; tags and fusion partners are left off. A change or cut given only in a name is not applied to a line headed by its entry.
UniProt Q8K4L3, whole entry: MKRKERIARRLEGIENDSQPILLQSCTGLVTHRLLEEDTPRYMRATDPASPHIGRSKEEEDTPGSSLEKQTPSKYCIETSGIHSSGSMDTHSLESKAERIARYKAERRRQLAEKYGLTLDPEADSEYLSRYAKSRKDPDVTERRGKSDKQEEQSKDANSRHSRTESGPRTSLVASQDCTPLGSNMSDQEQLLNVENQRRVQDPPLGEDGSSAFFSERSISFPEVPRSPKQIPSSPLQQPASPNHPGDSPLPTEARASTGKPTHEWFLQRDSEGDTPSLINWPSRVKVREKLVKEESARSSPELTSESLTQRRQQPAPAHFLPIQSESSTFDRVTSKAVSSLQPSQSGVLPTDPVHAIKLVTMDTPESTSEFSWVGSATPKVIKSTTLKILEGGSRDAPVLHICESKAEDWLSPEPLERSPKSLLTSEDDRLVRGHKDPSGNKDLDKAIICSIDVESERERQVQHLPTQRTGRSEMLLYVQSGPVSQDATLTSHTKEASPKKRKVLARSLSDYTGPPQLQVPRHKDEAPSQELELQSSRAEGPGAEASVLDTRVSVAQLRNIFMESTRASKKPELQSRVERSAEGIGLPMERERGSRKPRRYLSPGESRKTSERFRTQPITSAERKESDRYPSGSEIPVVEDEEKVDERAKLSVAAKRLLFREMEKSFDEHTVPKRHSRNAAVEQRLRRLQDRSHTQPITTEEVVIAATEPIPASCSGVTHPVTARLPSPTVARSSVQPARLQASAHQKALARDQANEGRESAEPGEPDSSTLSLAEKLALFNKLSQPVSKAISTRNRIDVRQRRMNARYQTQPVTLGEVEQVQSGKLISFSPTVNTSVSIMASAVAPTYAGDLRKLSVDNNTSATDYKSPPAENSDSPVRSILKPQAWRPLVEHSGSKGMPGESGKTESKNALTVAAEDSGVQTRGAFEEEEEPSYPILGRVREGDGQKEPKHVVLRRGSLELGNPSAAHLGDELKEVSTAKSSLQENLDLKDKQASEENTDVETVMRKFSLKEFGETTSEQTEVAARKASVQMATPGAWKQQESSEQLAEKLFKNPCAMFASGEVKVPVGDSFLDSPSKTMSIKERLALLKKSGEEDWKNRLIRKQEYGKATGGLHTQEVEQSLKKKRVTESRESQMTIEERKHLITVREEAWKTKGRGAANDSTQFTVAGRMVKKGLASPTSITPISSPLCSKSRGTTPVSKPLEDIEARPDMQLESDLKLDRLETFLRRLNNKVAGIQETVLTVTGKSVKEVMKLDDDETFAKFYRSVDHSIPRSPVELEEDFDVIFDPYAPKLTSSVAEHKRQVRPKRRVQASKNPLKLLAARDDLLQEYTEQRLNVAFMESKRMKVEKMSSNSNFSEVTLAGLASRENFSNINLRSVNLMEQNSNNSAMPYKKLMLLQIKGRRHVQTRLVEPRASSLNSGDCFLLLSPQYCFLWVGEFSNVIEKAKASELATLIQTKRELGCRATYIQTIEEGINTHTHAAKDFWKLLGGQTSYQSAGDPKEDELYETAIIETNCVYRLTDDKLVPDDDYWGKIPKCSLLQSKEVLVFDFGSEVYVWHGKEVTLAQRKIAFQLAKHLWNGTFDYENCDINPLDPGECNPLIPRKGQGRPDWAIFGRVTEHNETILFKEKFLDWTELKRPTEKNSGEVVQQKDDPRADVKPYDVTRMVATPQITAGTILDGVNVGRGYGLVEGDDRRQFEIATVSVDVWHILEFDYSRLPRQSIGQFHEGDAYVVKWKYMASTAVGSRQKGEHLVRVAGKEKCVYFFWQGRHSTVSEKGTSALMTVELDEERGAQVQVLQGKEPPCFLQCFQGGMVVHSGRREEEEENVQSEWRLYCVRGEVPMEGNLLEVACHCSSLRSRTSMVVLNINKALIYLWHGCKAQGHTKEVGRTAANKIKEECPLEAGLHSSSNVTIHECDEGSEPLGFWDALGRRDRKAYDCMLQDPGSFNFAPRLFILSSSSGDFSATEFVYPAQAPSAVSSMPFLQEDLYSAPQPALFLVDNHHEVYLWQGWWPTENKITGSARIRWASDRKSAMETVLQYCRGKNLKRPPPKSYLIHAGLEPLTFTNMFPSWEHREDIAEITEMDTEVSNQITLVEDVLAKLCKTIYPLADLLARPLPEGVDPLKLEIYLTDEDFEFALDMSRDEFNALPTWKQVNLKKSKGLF
UniProt Q8K2T4: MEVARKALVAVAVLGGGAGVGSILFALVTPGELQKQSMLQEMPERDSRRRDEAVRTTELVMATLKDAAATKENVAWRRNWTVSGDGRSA
UniProt Q8R087: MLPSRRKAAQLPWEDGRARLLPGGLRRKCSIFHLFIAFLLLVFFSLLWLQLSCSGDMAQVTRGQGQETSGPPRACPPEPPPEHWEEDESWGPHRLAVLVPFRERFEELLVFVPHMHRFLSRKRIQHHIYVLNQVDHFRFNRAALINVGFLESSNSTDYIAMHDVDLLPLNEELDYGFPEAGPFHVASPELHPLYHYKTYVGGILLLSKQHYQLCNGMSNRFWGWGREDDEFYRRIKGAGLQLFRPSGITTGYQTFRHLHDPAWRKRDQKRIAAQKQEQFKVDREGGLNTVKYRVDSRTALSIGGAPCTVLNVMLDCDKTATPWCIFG
UniProt Q8K5B2: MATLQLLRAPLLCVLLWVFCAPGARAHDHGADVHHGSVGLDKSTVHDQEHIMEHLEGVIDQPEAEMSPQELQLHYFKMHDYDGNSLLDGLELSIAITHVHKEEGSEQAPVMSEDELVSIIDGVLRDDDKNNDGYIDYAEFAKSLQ
UniProt Q8R059: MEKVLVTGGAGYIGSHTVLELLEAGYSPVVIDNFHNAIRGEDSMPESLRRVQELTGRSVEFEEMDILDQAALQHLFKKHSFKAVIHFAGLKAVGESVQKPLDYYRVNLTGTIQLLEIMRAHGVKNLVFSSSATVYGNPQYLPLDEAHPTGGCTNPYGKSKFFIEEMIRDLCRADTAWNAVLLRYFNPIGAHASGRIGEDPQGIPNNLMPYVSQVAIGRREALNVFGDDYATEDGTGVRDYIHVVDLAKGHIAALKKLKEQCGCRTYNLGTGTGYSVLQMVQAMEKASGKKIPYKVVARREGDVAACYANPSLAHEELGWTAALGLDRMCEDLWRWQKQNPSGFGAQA
UniProt Q8R184: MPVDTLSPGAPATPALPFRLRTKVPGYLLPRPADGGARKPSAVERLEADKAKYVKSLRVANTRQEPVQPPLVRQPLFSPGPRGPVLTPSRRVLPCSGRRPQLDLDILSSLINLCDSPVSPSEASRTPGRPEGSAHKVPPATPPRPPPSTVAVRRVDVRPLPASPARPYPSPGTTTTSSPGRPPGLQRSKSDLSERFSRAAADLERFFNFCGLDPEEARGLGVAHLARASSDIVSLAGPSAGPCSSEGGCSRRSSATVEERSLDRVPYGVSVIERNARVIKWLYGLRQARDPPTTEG
UniProt Q8K1H7: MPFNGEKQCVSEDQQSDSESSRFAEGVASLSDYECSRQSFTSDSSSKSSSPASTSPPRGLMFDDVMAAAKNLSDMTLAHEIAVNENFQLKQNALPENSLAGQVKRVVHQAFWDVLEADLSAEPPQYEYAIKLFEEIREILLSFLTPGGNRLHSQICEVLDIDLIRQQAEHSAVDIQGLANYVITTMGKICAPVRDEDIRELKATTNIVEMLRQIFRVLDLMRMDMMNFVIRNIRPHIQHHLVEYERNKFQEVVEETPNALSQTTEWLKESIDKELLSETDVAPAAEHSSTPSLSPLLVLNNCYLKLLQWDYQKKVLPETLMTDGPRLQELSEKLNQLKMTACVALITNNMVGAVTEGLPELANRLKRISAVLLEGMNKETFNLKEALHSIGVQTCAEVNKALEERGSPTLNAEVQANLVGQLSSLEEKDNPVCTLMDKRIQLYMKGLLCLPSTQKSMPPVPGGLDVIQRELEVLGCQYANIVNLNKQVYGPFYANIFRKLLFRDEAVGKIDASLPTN
UniProt Q8R1M0: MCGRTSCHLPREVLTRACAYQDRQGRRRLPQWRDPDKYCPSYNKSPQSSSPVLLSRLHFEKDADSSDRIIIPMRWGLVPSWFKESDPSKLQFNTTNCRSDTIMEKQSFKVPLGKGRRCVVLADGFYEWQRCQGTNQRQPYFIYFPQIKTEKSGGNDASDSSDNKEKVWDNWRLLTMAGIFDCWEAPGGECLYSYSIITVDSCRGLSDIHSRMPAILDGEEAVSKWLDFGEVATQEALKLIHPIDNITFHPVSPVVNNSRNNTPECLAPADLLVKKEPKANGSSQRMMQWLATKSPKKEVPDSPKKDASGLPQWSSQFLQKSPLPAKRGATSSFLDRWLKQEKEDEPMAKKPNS
UniProt Q8K4M5, whole entry: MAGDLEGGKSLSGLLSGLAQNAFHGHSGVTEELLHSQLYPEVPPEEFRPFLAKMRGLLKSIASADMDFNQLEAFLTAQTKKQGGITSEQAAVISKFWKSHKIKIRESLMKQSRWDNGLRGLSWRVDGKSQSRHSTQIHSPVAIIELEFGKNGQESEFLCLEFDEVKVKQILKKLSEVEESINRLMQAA
UniProt Q8QZT1: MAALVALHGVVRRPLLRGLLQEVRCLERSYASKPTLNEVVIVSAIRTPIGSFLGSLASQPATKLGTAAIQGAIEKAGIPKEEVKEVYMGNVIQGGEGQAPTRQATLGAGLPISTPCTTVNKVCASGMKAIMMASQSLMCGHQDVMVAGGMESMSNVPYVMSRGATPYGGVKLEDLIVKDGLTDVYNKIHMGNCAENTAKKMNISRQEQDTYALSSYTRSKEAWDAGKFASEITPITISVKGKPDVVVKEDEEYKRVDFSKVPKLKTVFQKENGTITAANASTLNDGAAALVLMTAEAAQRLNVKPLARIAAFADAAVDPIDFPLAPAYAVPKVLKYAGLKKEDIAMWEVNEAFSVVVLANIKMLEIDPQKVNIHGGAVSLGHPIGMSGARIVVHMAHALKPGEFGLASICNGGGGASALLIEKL
UniProt Q8K352: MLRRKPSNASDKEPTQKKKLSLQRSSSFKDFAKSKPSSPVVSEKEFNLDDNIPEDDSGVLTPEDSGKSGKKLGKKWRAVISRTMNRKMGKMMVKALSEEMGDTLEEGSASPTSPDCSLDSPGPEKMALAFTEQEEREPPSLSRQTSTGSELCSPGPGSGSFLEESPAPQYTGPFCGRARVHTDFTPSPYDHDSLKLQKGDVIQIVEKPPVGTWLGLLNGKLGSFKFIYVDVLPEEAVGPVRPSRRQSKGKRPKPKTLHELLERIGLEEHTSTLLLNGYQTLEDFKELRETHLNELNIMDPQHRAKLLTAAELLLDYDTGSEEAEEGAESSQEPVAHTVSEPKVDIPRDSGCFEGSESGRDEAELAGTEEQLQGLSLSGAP
UniProt Q8K3J9: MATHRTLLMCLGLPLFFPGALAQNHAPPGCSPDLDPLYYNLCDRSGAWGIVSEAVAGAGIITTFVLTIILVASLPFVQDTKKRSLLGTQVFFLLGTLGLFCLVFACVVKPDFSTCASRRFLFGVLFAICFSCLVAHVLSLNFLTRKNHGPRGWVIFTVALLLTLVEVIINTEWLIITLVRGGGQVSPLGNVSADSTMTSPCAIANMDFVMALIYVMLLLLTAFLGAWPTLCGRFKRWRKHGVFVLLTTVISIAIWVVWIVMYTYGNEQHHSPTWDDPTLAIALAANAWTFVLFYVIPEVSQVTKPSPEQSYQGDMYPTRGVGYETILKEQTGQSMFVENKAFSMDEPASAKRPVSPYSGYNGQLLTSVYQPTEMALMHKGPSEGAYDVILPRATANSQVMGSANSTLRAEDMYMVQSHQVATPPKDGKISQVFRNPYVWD
UniProt Q8R0L9: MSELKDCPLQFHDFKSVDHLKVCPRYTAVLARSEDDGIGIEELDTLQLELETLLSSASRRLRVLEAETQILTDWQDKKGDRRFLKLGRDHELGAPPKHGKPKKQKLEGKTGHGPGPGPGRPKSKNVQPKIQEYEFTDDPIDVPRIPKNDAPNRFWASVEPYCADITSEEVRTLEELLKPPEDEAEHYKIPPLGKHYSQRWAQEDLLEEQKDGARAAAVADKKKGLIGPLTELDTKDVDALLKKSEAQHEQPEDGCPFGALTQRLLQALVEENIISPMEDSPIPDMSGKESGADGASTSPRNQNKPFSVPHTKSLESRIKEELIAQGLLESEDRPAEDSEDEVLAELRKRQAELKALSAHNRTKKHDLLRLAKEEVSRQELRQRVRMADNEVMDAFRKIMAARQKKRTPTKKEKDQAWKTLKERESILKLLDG
UniProt Q8K4X7: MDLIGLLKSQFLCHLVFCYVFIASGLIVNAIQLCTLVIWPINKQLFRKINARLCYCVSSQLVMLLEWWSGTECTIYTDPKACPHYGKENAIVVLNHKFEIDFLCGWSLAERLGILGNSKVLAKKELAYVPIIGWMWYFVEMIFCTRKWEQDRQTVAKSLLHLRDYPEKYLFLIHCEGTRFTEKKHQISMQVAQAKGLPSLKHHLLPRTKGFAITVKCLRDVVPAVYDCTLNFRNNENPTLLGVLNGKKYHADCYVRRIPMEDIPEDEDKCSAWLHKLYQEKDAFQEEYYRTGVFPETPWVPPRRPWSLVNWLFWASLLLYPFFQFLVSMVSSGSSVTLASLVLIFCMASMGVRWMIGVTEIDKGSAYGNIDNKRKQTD
UniProt Q8K199: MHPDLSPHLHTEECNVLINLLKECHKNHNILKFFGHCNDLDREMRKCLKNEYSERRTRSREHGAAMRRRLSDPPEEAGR

Compound: CN[C@@H]1C[C@H]2O[C@@](C)([C@@H]1OC)n1c3ccccc3c3c4c(c5c6ccccc6n2c5c31)C(=O)NC4 [staurosporine]
Assay: log2 fold change of tryptic peptide abundance, ligand vs vehicle (limited proteolysis) (log2 ratio); higher = more trypsin-susceptible (destabilized)
Details: ligand concentration: 20 uM; sample: mouse liver crude lysate; replicate design: treated separately

| Target | log2 fold change |
| --- | --- |
| UniProt Q8K4L3 (peptide sequence: ATGGLHTQEVEQSLK, peptide start residue: 1112) | -0.159 |
| UniProt Q8K3G5 (peptide sequence: LFNEQNFFQR, peptide start residue: 190) | 0.419 |
| UniProt Q8K1C0 (peptide sequence: TDSDVTQAQQEK, peptide start residue: 420) | 0.31 |
| UniProt Q8K1A0 (peptide sequence: YDLPALYNFHK, peptide start residue: 184) | -0.399 |
| UniProt Q8R1L8 (peptide sequence: ALEFLGTEVR, peptide start residue: 73) | -0.173 |
| UniProt Q8K2T4 (peptide sequence: DAAATKENVAWR, peptide start residue: 66) | -0.322 |
| UniProt Q8K1C9 (peptide sequence: RSTQESLAIGGTDSK, peptide start residue: 325) | -0.28 |
| UniProt Q8R087 (peptide sequence: KAAQLPWEDGR, peptide start residue: 7) | 0.431 |
| UniProt Q8K2T8 (peptide sequence: TEYISTEFNR, peptide start residue: 134) | 0.118 |
| UniProt Q8R0S1 (peptide sequence: TVDEDPDERR, peptide start residue: 326) | -0.223 |
| UniProt Q8K5B2 (peptide sequence: DDDKNNDGYIDYAEFAK, peptide start residue: 126) | -0.0835 |
| UniProt Q8R0N6 (peptide sequence: HLETAGILGANIR, peptide start residue: 378) | -0.128 |
| UniProt Q8R059 (peptide sequence: AVIHFAGLK, peptide start residue: 83) | 0.353 |
| UniProt Q8QZS1 (peptide sequence: QLMEGSSK, peptide start residue: 312) | -0.165 |
| UniProt Q8R0J7 (peptide sequence: HPQAGAPPPPR, peptide start residue: 169) | 0.174 |
| UniProt Q8R184 (peptide sequence: TKVPGYLLPRPADGGAR, peptide start residue: 22) | -0.285 |

| Target | log2 fold change |
| --- | --- |
| UniProt Q8R2E9 (peptide sequence: SFPMHFDEK, peptide start residue: 352) | -0.357 |
| UniProt Q8K1H7 (peptide sequence: SSSPASTSPPR, peptide start residue: 48) | -0.232 |
| UniProt Q8R1M0 (peptide sequence: MMQWLATK, peptide start residue: 286) | 0.344 |
| UniProt Q8R1F0 (peptide sequence: SLEVGIRK, peptide start residue: 49) | 0.126 |
| UniProt Q8R0G7 (peptide sequence: AQLHVQGLLHESGPSDDR, peptide start residue: 492) | 0.234 |
| UniProt Q8R0F3 (peptide sequence: AGAHGSSAAAQR, peptide start residue: 56) | 0.609 |
| UniProt Q8R1G2 (peptide sequence: REDCSPADKPYIEEAR, peptide start residue: 219) | -0.442 |
| UniProt Q8K4M5 (peptide sequence: LSEVEESINR, peptide start residue: 174) | -0.16 |
| UniProt Q8QZT1 (peptide sequence: AGIPKEEVK, peptide start residue: 76) | -0.163 |
| UniProt Q8K352 (peptide sequence: SKPSSPVVSEK, peptide start residue: 34) | 0.146 |
| UniProt Q8K3J9 (peptide sequence: GVGYETILK, peptide start residue: 320) | -0.0815 |
| UniProt Q8R0L9 (peptide sequence: WAQEDLLEEQKDGAR, peptide start residue: 200) | -0.173 |
| UniProt Q8K4X7 (peptide sequence: YLFLIHCEGTR, peptide start residue: 169) | 0.678 |
| UniProt Q8K2P6 (peptide sequence: EVVIFYHK, peptide start residue: 40) | 0.127 |
| UniProt Q8K199 (peptide sequence: RLSDPPEEAGR, peptide start residue: 69) | 0.146 |

Some of the entries above, set out differently.
Target | log2 fold change
UniProt Q8K1H7 (peptide sequence: SSSPASTSPPR, peptide start residue: 48) | -0.232
UniProt Q8R1F0 (peptide sequence: SLEVGIRK, peptide start residue: 49) | 0.126
